The values below come from ChEMBL document CHEMBL1921676, “Pyrazolone-based anaplastic lymphoma kinase (ALK) inhibitors: control of selectivity by a benzyloxy group” (Bioorg Med Chem Lett, 2011).

SMILES strings stand for the structures. Some results are limits rather than exact numbers.

A short description of series [1]: Aqueous solubility of the compound at pH 7.4. The conditions noted are these: buffer.
The next series in a line: physchem. The conditions noted are these: buffer, pH 2.

Regarding `CCOc1cccc2c1c(/C=C1\C(=O)NN=C1c1snnc1C)cn2C`, the solubility (in series [1]; in “physchem”) was below 1 µg/mL each time.
